Screen size: about 360,000 compounds; about 7,500 (2.1%) were called active. The inconclusive results got no clear call from the source; some entries with a clear call stand among them for comparison. The call rests on the fitted dose curve; in most records, active means well fitted inhibition curve with a large enough effect; inconclusive means small, poorly fitted or top-dose-only effect, or effect the other way; inactive means flat fitted curve, though single readings scatter. A potency beside an inconclusive call is a rough fit, not a confirmed value.
Assay: Nrf2 qHTS screen for inhibitors; further: nearly all actives have a fitted effect of over 60% in size
Conditions: A549 ARE-Fluc reporter, luciferase luminescence, 18-24 h; series mostly up to 46 µM
In short: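 A549 ARE_Fluc cells (5000/well, 5% FBS OPTI-MEM) pre-incubated 2 h, then treated with compounds 18-24 h at 37C/5% CO2 in concentration-response. CellTiter-Fluor viability read first; BugLite luciferase luminescence after 15 min at room temperature gives Nrf2 activity.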
Potency means the concentration at half of the fitted maximal effect.

Row | SMILES | Potency
1 | Cc1ccc(/C=N/Nc2ccccn2)s1 | inconclusive: 23.1 µM [activator, single point]
2 | CCOC(=O)c1ccc(NC(=O)Cc2noc3ccc(C)cc23)cc1 | inconclusive: 9.2 µM [activator, partial curve]
3 | CCCCN(CCCC)CCCNC(=O)c1cc(-c2ccc(Cl)s2)nc2ccccc12 | inactive
4 | COc1ccccc1C(=O)COC(=O)c1ccccc1O | inactive
5 | CCOC(=O)C1CCN(c2nc(-c3ccc(C)cc3)nc3ccccc23)CC1 | inconclusive: 11.6 µM [falling, partial curve, poor fit]
6 | COc1ccc(-n2ncc3c2ncn2nc(-c4ccc(OC)c(OC)c4)nc32)cc1 | inactive
7 | Cn1c(=O)c2c(nc(NCc3ccco3)n2CCc2ccccc2)n(C)c1=O | active: 20.6 µM
8 | COc1cc(C(=O)N/N=C(\C)c2ccc3c(c2)OCO3)cc(OC)c1OC | inconclusive: 18.4 µM [activator, single point]
9 | CCCc1cc(=O)[nH]c(Nc2cc(Cl)cc(Cl)c2)n1 | inconclusive: 29.1 µM [falling, single point]
10 | CCOC(=O)Nc1cc2c(cc1[N+](=O)[O-])-c1ccccc1C2=O | inconclusive: 2.31 µM [activator, full curve]
11 | Cc1cc2nnc(SC3CCOC3=O)n2c2ccccc12 (stereo not drawn) | inconclusive: 10.3 µM [falling, partial curve, poor fit]
12 | Cc1cccnc1NC1(C(F)(F)F)N=C2SCCN2C1=O (stereo not drawn) | inconclusive: 0.231 µM [falling, partial curve, poor fit]
13 | CCOc1ccc2nc(NC3=NC(c4ccc(OC)cc4)CC(=O)N3)nc(C)c2c1 (stereo not drawn) | inactive
14 | Cc1nnc(NC(=O)c2ccc(S(=O)(=O)N3CCCCCC3)cc2)o1 | inactive
15 | COc1ccc(CN(C)CC(=O)Nc2ccccc2-c2ccccc2)c(OC)c1 | inconclusive: 29.1 µM [falling, single point]
16 | CCOC(=O)CSC1=NC(=O)/C(=C/c2ccc(OC)cc2)S1 | inactive
17 | COc1ccc(NC(=O)COc2ccc(N(C)S(=O)(=O)c3ccc(Cl)cc3)cc2)cc1 | active: 13 µM
18 | FC(F)(F)c1cccc(Nc2nc3nonc3nc2Nc2ccc(Cl)cc2)c1 | active: 0.58 µM
19 | Cc1ccccc1NC(=O)c1c(C)oc2ccc(O)c(CN3CCCCCC3)c12 | inconclusive: 6.51 µM [activator, single point]
20 | Cc1cc(C)c[n+](CC(=O)c2ccc(-c3ccccc3)cc2)c1 | inconclusive: 16.4 µM [falling, single point]
21 | Cc1ccccc1NC(=O)c1sc2nc(-c3cc4ccccc4oc3=O)[nH]c(=O)c2c1C | inconclusive: 29.1 µM [activator, single point]
22 | O=C(O)c1c2c(nc3ccccc13)/C(=C/c1cccc([N+](=O)[O-])c1)CCC2 | inactive
23 | CCN(C(=O)Cn1c(C(=O)OC)cc2sccc21)c1cccc(C)c1 | inactive
24 | CCOC(=O)c1ccccc1OCc1cc(C2Nc3ccccc3C(=O)N2c2cccc3ccccc23)ccc1OC (stereo not drawn) | inconclusive: 20.6 µM [activator, single point]
25 | CCCn1cc(S(=O)(=O)c2ccc(C)c(C)c2)c(=O)c2cc(F)c(N3CCCCC3)cc21 | inactive

Row | SMILES | Potency
26 | CCC(=O)C1CCCN(C(=O)CCc2nnc(C3(c4ccc(Cl)cc4)CCC3)o2)C1 (stereo not drawn) | inconclusive: 4.61 µM [activator, partial curve]
27 | CC1SC(=NC(=O)c2ccco2)NC1=O (stereo not drawn) | inactive
28 | CCN(CC)CCC(=O)Nc1cccc2c1C(=O)c1ccccc1C2=O | active: 16.4 µM
29 | O=c1c2ccccc2nc(SCc2ccc([N+](=O)[O-])cc2)n1CCCO | inconclusive: 29.1 µM [falling, single point]
30 | COc1ccc(CCNC(=O)c2ccccc2NS(=O)(=O)c2c(F)cccc2F)cc1 | inconclusive: 10.3 µM [falling, partial curve]
31 | FC(F)(F)c1cc(-c2ccco2)nc(NCc2ccc(Cl)cc2)n1 | inconclusive: 14.6 µM [falling, partial curve, poor fit]
32 | Cc1cccc(C)c1NC(=O)COC(=O)c1ccccc1O | inactive
33 | OCC1OC(n2cnc3c(=S)nc[nH]c32)C(O)C1O (stereo not drawn) | inactive
34 | Cc1c(CC(=O)NCCc2ccccc2)c(=O)oc2c(C)c3occ(C(C)(C)C)c3cc12 | inactive
35 | O=C(Nc1cccc(-c2nn3c(=O)cc(N4CCNCC4)nc3s2)c1)C1CCNCC1 | inactive
36 | Cc1cc(Nc2cc(Cl)ccc2C)n2nc(-c3ccccc3)nc2n1 | inactive
37 | Cc1cc(CN(C)Cc2ccc(OCC(O)CN(C)Cc3ccccc3)cc2)on1 (stereo not drawn) | inactive
38 | Cc1cc(NC(=O)CSc2nnc(C3CC3)n2C)no1 | inconclusive: 0.0046 µM [falling, full curve, poor fit]
39 | O=C(O)c1ccccc1C=NN1CCCCCC1 | inconclusive: 29.1 µM [activator, single point]
40 | CCCC(C)c1nnc(NC(=O)CCS(=O)(=O)c2ccccc2)s1 (stereo not drawn) | inactive
41 | Cc1cc(C)c2c(NC(=O)c3ccccc3Cl)c(C(=O)NCc3ccc(Cl)cc3)sc2n1 | inconclusive: 29.1 µM [falling, single point]
42 | COCCNC(=O)CSc1nnc(-c2ccc(C)cc2)c(-c2ccc(C)cc2)n1 | inconclusive: 29.1 µM [falling, partial curve, poor fit]
43 | COC(=O)c1nc(Nc2cc(F)cc(F)c2)nc(NC2CCCC2)n1 | inactive
44 | COc1ccc(C(=O)C2CCCN(C(=O)COc3ccc(C(C)=O)cc3)C2)cc1F (stereo not drawn) | inconclusive: 20.6 µM [falling, partial curve]
45 | Nc1ccc2c(c1)N1CCN=C1S2 | inconclusive: 0.146 µM [falling, full curve, poor fit]
46 | CSc1cnc2c(=O)n(C)c(=O)[nH]c2n1 | inactive
47 | Cc1ccccc1-c1nc2c(=O)n(C)c(=O)nc-2n(C)n1 | active: 2.31 µM
48 | COc1ccccc1CNC(=O)Cc1ccccc1 | inconclusive: 6.51 µM [activator, partial curve]
49 | COC(=O)c1ccccc1NC(=O)Cn1cnc2cc(C)c(C)cc21 | inconclusive: 18.4 µM [falling, single point]
50 | COc1ccc(C(=O)Nn2c(SCC(=O)NCc3ccccc3)nc3ccccc3c2=O)cc1 | inconclusive: 0.206 µM [activator, full curve, poor fit]

Row | SMILES | Potency
51 | CCOC(=O)N1CCN(C(=O)CNC(=O)c2ccc(Cl)cc2Cl)CC1 | inactive
52 | Cc1cccc(C(=O)n2c(=S)nc3cc(C)ccn32)c1 | inconclusive: 18.4 µM [activator, partial curve]
53 | CCS(=O)(=O)N1CCc2nc(-c3ccccc3)sc2C1 | inconclusive: 6.51 µM [activator, full curve, poor fit]
54 | COc1ccc(NC(=O)Cc2cccs2)c(OC)c1 | inconclusive: 5.8 µM [falling, single point]
55 | Cc1cccc2nc(CSc3nc4ccc([N+](=O)[O-])cc4[nH]3)c(Br)n12 | inconclusive: 18.4 µM [falling, single point]
56 | CC(=O)Nc1cccc(NC(=O)CSc2nccn2Cc2ccccc2)c1 | inconclusive: 23.1 µM [falling, single point]
57 | CC1=C(c2ccc(C(C)C)cc2)S(=O)(=O)N=C1N1CCC(C(=O)NCc2ccc(C)o2)CC1 | inconclusive: 14.6 µM [activator, partial curve, poor fit]
58 | O=C(NC1CCCCC1)c1ccc(CSc2nc3cccnc3n2Cc2ccccc2)cc1 | inactive
59 | Nc1nonc1C(=O)NCCNc1ccc([N+](=O)[O-])cn1 | inactive
60 | Cc1ccccc1-c1noc(-c2ccc(NCc3cccnc3)c([N+](=O)[O-])c2)n1 | inconclusive: 29.1 µM [activator, single point]
61 | CCn1ccnc1CNC(=O)c1cc(COc2ccc(F)cc2F)on1 | inconclusive: 5.17 µM [falling, partial curve, poor fit]
62 | Cc1ccc(NC(=O)CN2C(=O)c3ccccc3C2=O)c(C)c1 | inactive
63 | COc1ccc(-c2nnc(SCC(=O)N3CCOCC3)o2)cc1 | inconclusive: 14.6 µM [activator, partial curve]
64 | CCC(=O)/C=C1\Sc2ccc(OC)cc2N1CC | inactive
65 | CCCCC(O)(c1ccc(CC)cc1)C(CN1CCOCC1)c1ccccc1 (stereo not drawn) | inconclusive: 25.9 µM [falling, single point]
66 | CCOc1cc(N2CCOCC2)c(OCC)cc1NC(=O)COc1ncnc2ccccc12 | inactive
67 | COc1ccc(-c2nc3cnccn3c2NC2CCCCC2)cc1-c1cccc(Cl)c1 | inconclusive: 29.1 µM [falling, single point]
68 | COc1ccc(C(=O)Nc2ccc(N3CCN(C)CC3)cc2)cc1 | inconclusive: 18.4 µM [activator, single point]
69 | COc1cc(OC)c(NC(=O)c2ccc(-n3cnc4cccnc43)cc2)cc1Cl | inconclusive: 32.6 µM [falling, partial curve, poor fit]
70 | S=C(NCCCc1cnc[nH]1)NCCCN(Cc1ccc(Cl)c(Cl)c1)c1ccccn1 | inconclusive: 20.6 µM [falling, partial curve, poor fit]
71 | O=C(Nc1ccc(Cl)c(S(=O)(=O)N2CCCC2)c1)c1cc(=O)[nH]c2ccccc12 | inconclusive: 29.1 µM [falling, single point]
72 | Cc1cc(C)c(OCC(=O)NCC(c2ccco2)N2CCCCC2)c(C)c1 (stereo not drawn) | inconclusive: 18.4 µM [falling, single point]
73 | CCN(CC)C(=O)CSc1nc2c(sc(=S)n2Cc2ccco2)c(=O)n1-c1ccccc1 | inconclusive: 32.6 µM [falling, single point]

Random excerpt: three entries already listed
Row | SMILES | Potency
58 | O=C(NC1CCCCC1)c1ccc(CSc2nc3cccnc3n2Cc2ccccc2)cc1 | inactive
52 | Cc1cccc(C(=O)n2c(=S)nc3cc(C)ccn32)c1 | inconclusive: 18.4 µM [activator, partial curve]
72 | Cc1cc(C)c(OCC(=O)NCC(c2ccco2)N2CCCCC2)c(C)c1 (stereo not drawn) | inconclusive: 18.4 µM [falling, single point]

Reference: PubChem BioAssay AID504444 (National Center for Advancing Translational Sciences (NCATS), 2011)
